{"sequences": {"note": "Protein sequences, listed by entry. Tags and fused reporters are not part of them.", "UniProt Q969H0": "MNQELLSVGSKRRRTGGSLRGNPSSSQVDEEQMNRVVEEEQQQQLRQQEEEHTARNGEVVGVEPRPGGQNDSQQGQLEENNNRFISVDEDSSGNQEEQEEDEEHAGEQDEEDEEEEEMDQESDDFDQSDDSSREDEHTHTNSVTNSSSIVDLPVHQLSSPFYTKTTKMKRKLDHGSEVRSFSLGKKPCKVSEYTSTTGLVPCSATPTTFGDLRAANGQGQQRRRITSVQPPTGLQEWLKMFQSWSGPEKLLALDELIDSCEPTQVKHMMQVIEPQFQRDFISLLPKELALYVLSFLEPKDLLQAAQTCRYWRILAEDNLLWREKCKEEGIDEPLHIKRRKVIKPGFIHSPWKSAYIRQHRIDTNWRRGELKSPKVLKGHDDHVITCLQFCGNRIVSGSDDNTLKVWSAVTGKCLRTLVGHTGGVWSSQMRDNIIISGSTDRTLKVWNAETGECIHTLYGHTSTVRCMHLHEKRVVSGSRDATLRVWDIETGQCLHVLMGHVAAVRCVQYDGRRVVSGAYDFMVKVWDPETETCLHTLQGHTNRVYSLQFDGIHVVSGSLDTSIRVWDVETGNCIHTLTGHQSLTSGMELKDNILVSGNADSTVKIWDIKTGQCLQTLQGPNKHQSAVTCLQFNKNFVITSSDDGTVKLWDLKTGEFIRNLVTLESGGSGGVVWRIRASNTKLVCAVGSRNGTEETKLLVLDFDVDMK", "UniProt P51784": "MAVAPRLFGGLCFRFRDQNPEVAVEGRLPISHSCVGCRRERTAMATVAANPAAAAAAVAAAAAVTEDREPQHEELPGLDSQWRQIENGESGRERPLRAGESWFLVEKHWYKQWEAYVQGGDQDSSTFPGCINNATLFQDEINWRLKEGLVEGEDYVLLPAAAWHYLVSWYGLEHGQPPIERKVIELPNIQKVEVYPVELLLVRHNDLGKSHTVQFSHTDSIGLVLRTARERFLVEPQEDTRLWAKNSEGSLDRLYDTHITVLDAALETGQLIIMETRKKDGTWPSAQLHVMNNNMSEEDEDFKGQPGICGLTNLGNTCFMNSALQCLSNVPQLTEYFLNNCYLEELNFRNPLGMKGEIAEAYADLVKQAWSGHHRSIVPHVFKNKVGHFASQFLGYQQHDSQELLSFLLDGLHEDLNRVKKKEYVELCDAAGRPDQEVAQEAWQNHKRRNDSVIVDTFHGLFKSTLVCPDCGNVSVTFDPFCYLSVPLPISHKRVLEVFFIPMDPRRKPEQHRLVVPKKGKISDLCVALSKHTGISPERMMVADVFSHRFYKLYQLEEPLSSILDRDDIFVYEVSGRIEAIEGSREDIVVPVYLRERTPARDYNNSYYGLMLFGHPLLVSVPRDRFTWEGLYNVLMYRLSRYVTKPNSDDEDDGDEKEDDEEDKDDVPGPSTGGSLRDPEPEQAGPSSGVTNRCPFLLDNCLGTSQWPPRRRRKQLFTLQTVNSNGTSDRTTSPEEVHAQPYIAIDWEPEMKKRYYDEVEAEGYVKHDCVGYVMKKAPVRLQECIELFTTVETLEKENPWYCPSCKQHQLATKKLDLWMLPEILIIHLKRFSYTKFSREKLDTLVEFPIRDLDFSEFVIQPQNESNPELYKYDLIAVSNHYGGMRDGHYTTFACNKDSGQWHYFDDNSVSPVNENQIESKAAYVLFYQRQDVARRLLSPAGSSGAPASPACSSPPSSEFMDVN", "UniProt P63208": "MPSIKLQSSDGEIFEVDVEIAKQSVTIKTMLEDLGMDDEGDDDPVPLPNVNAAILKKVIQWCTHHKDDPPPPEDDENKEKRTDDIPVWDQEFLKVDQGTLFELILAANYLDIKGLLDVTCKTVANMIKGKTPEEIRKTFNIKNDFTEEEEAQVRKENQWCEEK", "UniProt O75592": "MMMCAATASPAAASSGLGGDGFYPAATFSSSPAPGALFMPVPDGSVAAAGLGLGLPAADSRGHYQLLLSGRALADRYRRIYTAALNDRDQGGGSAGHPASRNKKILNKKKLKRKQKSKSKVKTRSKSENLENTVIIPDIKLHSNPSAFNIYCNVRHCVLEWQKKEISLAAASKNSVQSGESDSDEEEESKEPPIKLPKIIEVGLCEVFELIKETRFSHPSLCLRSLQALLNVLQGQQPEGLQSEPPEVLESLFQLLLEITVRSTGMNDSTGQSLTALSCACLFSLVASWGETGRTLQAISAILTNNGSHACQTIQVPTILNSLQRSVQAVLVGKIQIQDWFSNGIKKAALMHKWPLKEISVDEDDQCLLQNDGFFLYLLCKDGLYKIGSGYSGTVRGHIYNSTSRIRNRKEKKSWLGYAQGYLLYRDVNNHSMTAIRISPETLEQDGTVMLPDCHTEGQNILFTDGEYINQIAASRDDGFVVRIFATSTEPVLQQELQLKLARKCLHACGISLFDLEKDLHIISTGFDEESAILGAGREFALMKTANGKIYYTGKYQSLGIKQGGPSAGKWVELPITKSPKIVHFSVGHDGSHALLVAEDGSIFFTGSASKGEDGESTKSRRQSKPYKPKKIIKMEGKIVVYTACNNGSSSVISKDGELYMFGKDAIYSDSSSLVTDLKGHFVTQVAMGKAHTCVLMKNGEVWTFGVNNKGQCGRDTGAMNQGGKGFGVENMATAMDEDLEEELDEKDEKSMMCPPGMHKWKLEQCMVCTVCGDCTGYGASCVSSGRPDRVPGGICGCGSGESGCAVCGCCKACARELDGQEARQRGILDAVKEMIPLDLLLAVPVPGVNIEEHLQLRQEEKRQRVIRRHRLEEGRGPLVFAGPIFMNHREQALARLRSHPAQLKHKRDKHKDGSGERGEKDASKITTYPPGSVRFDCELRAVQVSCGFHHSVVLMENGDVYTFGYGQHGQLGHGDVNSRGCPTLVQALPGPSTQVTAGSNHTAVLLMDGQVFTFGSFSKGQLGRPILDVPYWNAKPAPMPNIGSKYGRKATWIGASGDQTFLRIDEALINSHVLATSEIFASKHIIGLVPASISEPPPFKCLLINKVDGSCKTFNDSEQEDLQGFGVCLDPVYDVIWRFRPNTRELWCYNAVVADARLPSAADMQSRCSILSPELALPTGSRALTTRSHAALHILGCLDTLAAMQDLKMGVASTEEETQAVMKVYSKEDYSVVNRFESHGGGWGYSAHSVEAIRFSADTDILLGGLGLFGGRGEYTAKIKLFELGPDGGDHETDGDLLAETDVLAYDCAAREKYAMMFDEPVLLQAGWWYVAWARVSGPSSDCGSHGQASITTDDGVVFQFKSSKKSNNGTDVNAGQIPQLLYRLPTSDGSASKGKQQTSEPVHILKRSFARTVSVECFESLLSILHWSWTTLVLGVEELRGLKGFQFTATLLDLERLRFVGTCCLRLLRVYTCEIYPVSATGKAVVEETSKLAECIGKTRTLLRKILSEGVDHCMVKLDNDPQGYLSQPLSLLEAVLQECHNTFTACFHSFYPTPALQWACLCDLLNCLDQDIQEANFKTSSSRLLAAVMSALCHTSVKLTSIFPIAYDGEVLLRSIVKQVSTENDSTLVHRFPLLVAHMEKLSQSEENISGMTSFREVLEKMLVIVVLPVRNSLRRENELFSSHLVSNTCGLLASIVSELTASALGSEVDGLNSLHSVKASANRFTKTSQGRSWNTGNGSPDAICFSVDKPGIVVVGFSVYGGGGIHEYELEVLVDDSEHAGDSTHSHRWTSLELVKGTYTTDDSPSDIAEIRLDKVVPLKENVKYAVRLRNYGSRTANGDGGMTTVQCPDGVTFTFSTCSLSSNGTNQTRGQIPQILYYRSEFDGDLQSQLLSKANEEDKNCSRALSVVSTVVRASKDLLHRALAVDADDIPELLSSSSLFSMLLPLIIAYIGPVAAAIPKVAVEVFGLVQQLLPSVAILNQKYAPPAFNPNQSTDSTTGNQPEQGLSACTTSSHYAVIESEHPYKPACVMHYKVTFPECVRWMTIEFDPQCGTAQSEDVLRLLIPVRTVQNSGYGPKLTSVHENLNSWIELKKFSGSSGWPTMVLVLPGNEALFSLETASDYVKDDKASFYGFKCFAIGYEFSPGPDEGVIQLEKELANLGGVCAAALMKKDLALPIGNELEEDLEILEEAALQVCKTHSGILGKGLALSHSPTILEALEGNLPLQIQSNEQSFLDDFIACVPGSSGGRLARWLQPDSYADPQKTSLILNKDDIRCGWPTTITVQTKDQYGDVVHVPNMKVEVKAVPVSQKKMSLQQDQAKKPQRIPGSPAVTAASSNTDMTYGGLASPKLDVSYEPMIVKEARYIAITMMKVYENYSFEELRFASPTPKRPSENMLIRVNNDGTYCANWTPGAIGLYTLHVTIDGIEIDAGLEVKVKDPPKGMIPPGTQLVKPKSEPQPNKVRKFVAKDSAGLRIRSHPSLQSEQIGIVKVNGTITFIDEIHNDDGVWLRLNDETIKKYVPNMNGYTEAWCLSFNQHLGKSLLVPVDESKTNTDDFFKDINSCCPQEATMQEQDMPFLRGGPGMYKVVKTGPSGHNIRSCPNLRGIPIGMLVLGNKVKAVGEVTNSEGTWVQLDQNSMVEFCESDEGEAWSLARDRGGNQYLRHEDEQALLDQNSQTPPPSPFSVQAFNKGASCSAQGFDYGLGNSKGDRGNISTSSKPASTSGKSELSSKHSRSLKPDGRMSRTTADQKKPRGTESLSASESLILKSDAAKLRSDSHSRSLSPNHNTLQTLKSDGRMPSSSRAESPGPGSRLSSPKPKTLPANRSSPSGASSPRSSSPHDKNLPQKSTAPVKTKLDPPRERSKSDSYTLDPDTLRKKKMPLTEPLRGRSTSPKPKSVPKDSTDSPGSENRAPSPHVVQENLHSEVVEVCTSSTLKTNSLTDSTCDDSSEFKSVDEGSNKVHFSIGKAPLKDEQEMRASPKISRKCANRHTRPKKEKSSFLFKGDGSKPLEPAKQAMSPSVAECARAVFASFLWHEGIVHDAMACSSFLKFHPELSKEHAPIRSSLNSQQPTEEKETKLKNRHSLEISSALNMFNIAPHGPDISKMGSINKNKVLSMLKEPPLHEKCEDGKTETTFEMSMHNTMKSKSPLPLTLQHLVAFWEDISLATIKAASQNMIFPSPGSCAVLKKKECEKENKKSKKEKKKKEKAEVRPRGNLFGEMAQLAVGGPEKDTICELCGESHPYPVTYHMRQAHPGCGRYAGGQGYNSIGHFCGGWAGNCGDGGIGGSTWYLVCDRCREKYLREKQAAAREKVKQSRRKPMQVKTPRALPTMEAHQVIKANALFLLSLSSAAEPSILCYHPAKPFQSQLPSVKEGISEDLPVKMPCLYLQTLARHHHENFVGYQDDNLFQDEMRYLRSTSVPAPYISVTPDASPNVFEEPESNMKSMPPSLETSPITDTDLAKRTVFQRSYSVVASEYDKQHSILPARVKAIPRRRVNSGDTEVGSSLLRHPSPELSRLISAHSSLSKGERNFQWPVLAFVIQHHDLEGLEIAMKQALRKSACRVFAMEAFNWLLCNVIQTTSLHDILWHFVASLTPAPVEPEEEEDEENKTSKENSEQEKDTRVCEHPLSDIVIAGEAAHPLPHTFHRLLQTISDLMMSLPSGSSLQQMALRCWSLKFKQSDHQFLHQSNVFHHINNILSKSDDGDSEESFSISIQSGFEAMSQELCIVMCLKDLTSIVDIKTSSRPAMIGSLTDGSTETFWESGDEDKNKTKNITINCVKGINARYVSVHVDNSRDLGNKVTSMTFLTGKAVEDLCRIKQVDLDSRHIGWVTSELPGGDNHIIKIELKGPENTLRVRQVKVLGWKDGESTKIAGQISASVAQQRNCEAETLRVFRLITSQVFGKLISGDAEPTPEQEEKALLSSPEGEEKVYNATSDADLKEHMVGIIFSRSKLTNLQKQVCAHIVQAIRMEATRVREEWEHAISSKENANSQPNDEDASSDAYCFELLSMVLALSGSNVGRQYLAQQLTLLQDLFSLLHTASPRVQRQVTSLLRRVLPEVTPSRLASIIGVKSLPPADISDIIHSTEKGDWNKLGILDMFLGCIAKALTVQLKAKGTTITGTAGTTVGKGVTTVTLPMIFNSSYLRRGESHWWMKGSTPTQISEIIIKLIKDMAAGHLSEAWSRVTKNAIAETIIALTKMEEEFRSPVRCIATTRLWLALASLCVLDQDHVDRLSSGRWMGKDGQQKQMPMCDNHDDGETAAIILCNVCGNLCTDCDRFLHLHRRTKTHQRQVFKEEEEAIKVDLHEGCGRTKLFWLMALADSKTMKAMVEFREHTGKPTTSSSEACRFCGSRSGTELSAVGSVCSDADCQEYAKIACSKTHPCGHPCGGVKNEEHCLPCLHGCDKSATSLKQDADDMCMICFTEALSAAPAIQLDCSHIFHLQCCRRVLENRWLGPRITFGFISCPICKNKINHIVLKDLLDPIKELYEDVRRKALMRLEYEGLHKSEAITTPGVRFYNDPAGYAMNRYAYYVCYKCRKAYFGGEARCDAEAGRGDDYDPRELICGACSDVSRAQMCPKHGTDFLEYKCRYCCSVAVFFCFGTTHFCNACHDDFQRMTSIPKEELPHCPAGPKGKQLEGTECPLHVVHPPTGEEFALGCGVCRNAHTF"}, "source": "paper PMC12664034", "about": "“The E3 ubiquitin ligase SPRYD3-MYCBP2(PAM) regulates mitotic cell fate and ubiquitination of USP11 to control spindle assembly” (The Journal of Biological Chemistry, 2025)", "experiment_in_all_cases": "affinity purification with mass spectrometry; Flag-tagged bait (Flag-FBXO45 or Flag-SPRYD3) expressed 30 h in HEK293T WT cells; NP-40 buffer lysate; Flag-M2 beads overnight; elution with 3x Flag peptide; LC-MS/MS, LFQ against Flag-EV, n = 4", "key": {"[1]": {"molecular_target": "T1, Flag-FBXO45 (UniProt P0C2W1)", "T1 sequence": "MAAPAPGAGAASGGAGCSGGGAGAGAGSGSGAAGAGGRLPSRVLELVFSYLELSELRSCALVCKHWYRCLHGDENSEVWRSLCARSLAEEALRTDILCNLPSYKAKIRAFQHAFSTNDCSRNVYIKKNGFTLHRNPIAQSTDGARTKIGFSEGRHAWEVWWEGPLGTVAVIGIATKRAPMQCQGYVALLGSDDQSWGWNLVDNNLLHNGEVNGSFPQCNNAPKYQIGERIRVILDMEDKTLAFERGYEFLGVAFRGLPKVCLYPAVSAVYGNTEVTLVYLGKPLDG"}, "[2]": {"molecular_target": "T2, Flag-SPRYD3 (UniProt Q8NCJ5)", "T2 sequence": "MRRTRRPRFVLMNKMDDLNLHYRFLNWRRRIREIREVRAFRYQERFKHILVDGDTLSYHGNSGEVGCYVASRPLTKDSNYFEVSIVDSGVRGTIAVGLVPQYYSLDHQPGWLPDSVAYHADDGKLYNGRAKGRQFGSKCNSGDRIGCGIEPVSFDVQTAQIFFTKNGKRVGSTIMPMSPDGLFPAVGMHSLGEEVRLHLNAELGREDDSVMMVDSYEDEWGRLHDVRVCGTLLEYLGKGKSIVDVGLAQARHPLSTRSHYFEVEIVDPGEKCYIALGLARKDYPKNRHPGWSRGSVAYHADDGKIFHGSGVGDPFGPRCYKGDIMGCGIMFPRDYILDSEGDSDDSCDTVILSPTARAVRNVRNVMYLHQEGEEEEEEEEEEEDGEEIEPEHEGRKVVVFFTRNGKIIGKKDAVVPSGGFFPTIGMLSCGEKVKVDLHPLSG"}, "[3]": {"molecular_target": "T2, Flag-SPRYD3", "remark": "listed apart in the source"}, "[4]": {"molecular_target": "T1, Flag-FBXO45", "remark": "listed apart in the source"}}, "note": "Like-named read-outs stand apart in the source and are kept apart here. No constants are given. Whether binding was seen depends on the method and setting. Binding seen in cells or lysates may run through a third protein. These calls come from enrichment with a bait or labelling near it, and not all partners need be listed. Where a sequence is shown, tags or fusion partners need not be part of it.", "data": [{"molecule": "endogenous FBXW7 (from UniProt Q969H0 1-707)", "values": [{"measurement": "binding", "setting": "[1]", "result": "binds"}]}, {"molecule": "endogenous USP11 (from UniProt P51784 1-963) (enzyme)", "values": [{"measurement": "binding", "setting": "[2]", "result": "binds"}]}, {"molecule": "endogenous SKP1 (from UniProt P63208 1-163)", "values": [{"measurement": "binding", "setting": "[1]", "result": "binds"}]}, {"molecule": "endogenous MYCBP2 (from UniProt O75592 1-4678)", "values": [{"measurement": "binding", "setting": "[1]", "result": "binds"}]}, {"molecule": "endogenous RAE1 (protein, UniProt P78406 1-368) MSLFGTTSGFGTSGTSMFGSATTDNHNPMKDIEVTSSPDDSIGCLSFSPPTLPGNFLIAGSWANDVRCWEVQDSGQTIPKAQQMHTGPVLDVCWSDDGSKVFTASCDKTAKMWDLSSNQAIQIAQHDAPVKTIHWIKAPNYSCVMTGSWDKTLKFWDTRSSNPMMVLQLPERCYCADVIYPMAVVATAERGLIVYQLENQPSEFRRIESPLKHQHRCVAIFKDKQNKPTGFALGSIEGRVAIHYINPPNPAKDNFTFKCHRSNGTNTSAPQDIYAVNGIAFHPVHGTLATVGSDGRFSFWDKDARTKLKTSEQLDQPISACCFNHNGNIFAYASSYDWSKGHEFYNPQKKNYIFLRNAAEELKPRNKK", "values": [{"measurement": "binding", "setting": "[3]", "result": "binds"}]}, {"molecule": "endogenous FBXO45 (protein, UniProt P0C2W1 1-286) MAAPAPGAGAASGGAGCSGGGAGAGAGSGSGAAGAGGRLPSRVLELVFSYLELSELRSCALVCKHWYRCLHGDENSEVWRSLCARSLAEEALRTDILCNLPSYKAKIRAFQHAFSTNDCSRNVYIKKNGFTLHRNPIAQSTDGARTKIGFSEGRHAWEVWWEGPLGTVAVIGIATKRAPMQCQGYVALLGSDDQSWGWNLVDNNLLHNGEVNGSFPQCNNAPKYQIGERIRVILDMEDKTLAFERGYEFLGVAFRGLPKVCLYPAVSAVYGNTEVTLVYLGKPLDG", "values": [{"measurement": "binding", "setting": "[3]", "result": "binds"}]}, {"molecule": "endogenous SPRYD3 (protein, UniProt Q8NCJ5 1-442) MRRTRRPRFVLMNKMDDLNLHYRFLNWRRRIREIREVRAFRYQERFKHILVDGDTLSYHGNSGEVGCYVASRPLTKDSNYFEVSIVDSGVRGTIAVGLVPQYYSLDHQPGWLPDSVAYHADDGKLYNGRAKGRQFGSKCNSGDRIGCGIEPVSFDVQTAQIFFTKNGKRVGSTIMPMSPDGLFPAVGMHSLGEEVRLHLNAELGREDDSVMMVDSYEDEWGRLHDVRVCGTLLEYLGKGKSIVDVGLAQARHPLSTRSHYFEVEIVDPGEKCYIALGLARKDYPKNRHPGWSRGSVAYHADDGKIFHGSGVGDPFGPRCYKGDIMGCGIMFPRDYILDSEGDSDDSCDTVILSPTARAVRNVRNVMYLHQEGEEEEEEEEEEEDGEEIEPEHEGRKVVVFFTRNGKIIGKKDAVVPSGGFFPTIGMLSCGEKVKVDLHPLSG", "values": [{"measurement": "binding", "setting": "[4]", "result": "binds"}]}]}
